Counter-ions that a name gives are not always drawn. Some of the results follow. Repeats in this data set agree poorly, so a single value says little.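 FDA-approved drugs were each paired with colistin at one-eighth its MIC and screened against a multidrug-resistant, mcr-1-positive clinical E. coli isolate, with OD600 read after 24 h. Drug-free bacteria served as growth control, plain broth as blank. Combinations were active if OD600 dropped below 0.2.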

These results are taken from the supplement of paper PMC11546906.

The subject of this experiment is Escherichia coli 42 (mcr-1-positive clinical isolate). Kind of experiment: OD600 after 24 h growth with compound plus colistin (absorbance units (OD600)); higher = more bacterial growth (less inhibition). To be noted: first compound 25 µM; colistin concentration 0.5 ug/mL; incubation time 24 h; 37 °C.
Take `CC1Cc2ccccc2N1NC(=O)c1ccc(Cl)c(S(N)(=O)=O)c1` (centres undefined) [Indapamide] + CCC(C)CCCC(=O)N[C@@H](CCN)C(=O)N[C@H](C(=O)N[C@@H](CCN)C(=O)N[C@H]1CCNC(=O)[C@H]([C@@H](C)O)NC(=O)[C@H](CCN)NC(=O)[C@H](CCN)NC(=O)[C@H](CC(C)C)NC(=O)[C@@H](CC(C)C)NC(=O)[C@H](CCN)NC1=O)[C@@H](C)O [colistin]: the OD600 was inactive: 1.03.
Turning to `CCNC(=O)CCC/C=C\C[C@@H]1[C@@H](/C=C/[C@@H](O)CCc2ccccc2)[C@H](O)C[C@@H]1O` [Bimatoprost] + CCC(C)CCCC(=O)N[C@@H](CCN)C(=O)N[C@H](C(=O)N[C@@H](CCN)C(=O)N[C@H]1CCNC(=O)[C@H]([C@@H](C)O)NC(=O)[C@H](CCN)NC(=O)[C@H](CCN)NC(=O)[C@H](CC(C)C)NC(=O)[C@@H](CC(C)C)NC(=O)[C@H](CCN)NC1=O)[C@@H](C)O [colistin], the OD600 was inactive: 0.941.
The figure for `CCCNCC(O)COc1ccccc1C(=O)CCc1ccccc1` (centres undefined) [Propafenone] + CCC(C)CCCC(=O)N[C@@H](CCN)C(=O)N[C@H](C(=O)N[C@@H](CCN)C(=O)N[C@H]1CCNC(=O)[C@H]([C@@H](C)O)NC(=O)[C@H](CCN)NC(=O)[C@H](CCN)NC(=O)[C@H](CC(C)C)NC(=O)[C@@H](CC(C)C)NC(=O)[C@H](CCN)NC1=O)[C@@H](C)O [colistin] is inactive: 0.932; for `COC1=CC(=O)C[C@@H](C)[C@]12Oc1c(Cl)c(OC)cc(OC)c1C2=O` [Griseofulvin] + CCC(C)CCCC(=O)N[C@@H](CCN)C(=O)N[C@H](C(=O)N[C@@H](CCN)C(=O)N[C@H]1CCNC(=O)[C@H]([C@@H](C)O)NC(=O)[C@H](CCN)NC(=O)[C@H](CCN)NC(=O)[C@H](CC(C)C)NC(=O)[C@@H](CC(C)C)NC(=O)[C@H](CCN)NC1=O)[C@@H](C)O [colistin] it is inactive: 1.03; for `CCN(CC)CC#CCOC(=O)C(O)(c1ccccc1)C1CCCCC1` (centres undefined) [Oxybutynin chloride] + CCC(C)CCCC(=O)N[C@@H](CCN)C(=O)N[C@H](C(=O)N[C@@H](CCN)C(=O)N[C@H]1CCNC(=O)[C@H]([C@@H](C)O)NC(=O)[C@H](CCN)NC(=O)[C@H](CCN)NC(=O)[C@H](CC(C)C)NC(=O)[C@@H](CC(C)C)NC(=O)[C@H](CCN)NC1=O)[C@@H](C)O [colistin] it is inactive: 1.05.
As for `C=C1c2c(Cl)ccc(O)c2C(O)=C2C(=O)[C@]3(O)C(O)=C(C(N)=O)C(=O)[C@@H](N(C)C)[C@@H]3[C@@H](O)[C@H]12.O=C(O)c1cc(S(=O)(=O)O)ccc1O` [Meclocycline sulfosalicylate salt] + CCC(C)CCCC(=O)N[C@@H](CCN)C(=O)N[C@H](C(=O)N[C@@H](CCN)C(=O)N[C@H]1CCNC(=O)[C@H]([C@@H](C)O)NC(=O)[C@H](CCN)NC(=O)[C@H](CCN)NC(=O)[C@H](CC(C)C)NC(=O)[C@@H](CC(C)C)NC(=O)[C@H](CCN)NC1=O)[C@@H](C)O [colistin], the OD600 is inactive: 1.1.
With `C[C@H](CCC(=O)O)[C@H]1CC[C@H]2[C@@H]3[C@H](O)C[C@@H]4C[C@H](O)CC[C@]4(C)[C@H]3CC[C@]12C` [Chenodeoxycholic acid] + CCC(C)CCCC(=O)N[C@@H](CCN)C(=O)N[C@H](C(=O)N[C@@H](CCN)C(=O)N[C@H]1CCNC(=O)[C@H]([C@@H](C)O)NC(=O)[C@H](CCN)NC(=O)[C@H](CCN)NC(=O)[C@H](CC(C)C)NC(=O)[C@@H](CC(C)C)NC(=O)[C@H](CCN)NC1=O)[C@@H](C)O [colistin] the figure was inactive: 1.2; with `C=CC1=C(C(=O)O)N2C(=O)[C@@H](NC(=O)/C(=N\OCC(=O)O)c3csc(N)n3)[C@H]2SC1` [Cefixime] + CCC(C)CCCC(=O)N[C@@H](CCN)C(=O)N[C@H](C(=O)N[C@@H](CCN)C(=O)N[C@H]1CCNC(=O)[C@H]([C@@H](C)O)NC(=O)[C@H](CCN)NC(=O)[C@H](CCN)NC(=O)[C@H](CC(C)C)NC(=O)[C@@H](CC(C)C)NC(=O)[C@H](CCN)NC1=O)[C@@H](C)O [colistin], active: 0.037.
With `CC1=C(/C=C/C(C)=C/C=C/C(C)=C/C(=O)O)C(C)(C)CCC1` [Retinoic acid] + CCC(C)CCCC(=O)N[C@@H](CCN)C(=O)N[C@H](C(=O)N[C@@H](CCN)C(=O)N[C@H]1CCNC(=O)[C@H]([C@@H](C)O)NC(=O)[C@H](CCN)NC(=O)[C@H](CCN)NC(=O)[C@H](CC(C)C)NC(=O)[C@@H](CC(C)C)NC(=O)[C@H](CCN)NC1=O)[C@@H](C)O [colistin] the figure was inactive: 0.935.
With `CN1CCC[C@@H]1CCO[C@](C)(c1ccccc1)c1ccc(Cl)cc1` [Clemastine fumarate] + CCC(C)CCCC(=O)N[C@@H](CCN)C(=O)N[C@H](C(=O)N[C@@H](CCN)C(=O)N[C@H]1CCNC(=O)[C@H]([C@@H](C)O)NC(=O)[C@H](CCN)NC(=O)[C@H](CCN)NC(=O)[C@H](CC(C)C)NC(=O)[C@@H](CC(C)C)NC(=O)[C@H](CCN)NC1=O)[C@@H](C)O [colistin], the OD600 was inactive: 0.947.
For `NCCCCCC(=O)O` [6-Aminocaproic acid] + CCC(C)CCCC(=O)N[C@@H](CCN)C(=O)N[C@H](C(=O)N[C@@H](CCN)C(=O)N[C@H]1CCNC(=O)[C@H]([C@@H](C)O)NC(=O)[C@H](CCN)NC(=O)[C@H](CCN)NC(=O)[C@H](CC(C)C)NC(=O)[C@@H](CC(C)C)NC(=O)[C@H](CCN)NC1=O)[C@@H](C)O [colistin], the OD600 is inactive: 0.983.
Turning to `COc1cc2nccc(Oc3ccc(NC(=O)NC4CC4)c(Cl)c3)c2cc1C(N)=O` [Lenvatinib] + CCC(C)CCCC(=O)N[C@@H](CCN)C(=O)N[C@H](C(=O)N[C@@H](CCN)C(=O)N[C@H]1CCNC(=O)[C@H]([C@@H](C)O)NC(=O)[C@H](CCN)NC(=O)[C@H](CCN)NC(=O)[C@H](CC(C)C)NC(=O)[C@@H](CC(C)C)NC(=O)[C@H](CCN)NC1=O)[C@@H](C)O [colistin], the OD600 is inactive: 0.624.
As for `CC1=NN(c2ccccc2)C(=O)C1` [Edaravone] + CCC(C)CCCC(=O)N[C@@H](CCN)C(=O)N[C@H](C(=O)N[C@@H](CCN)C(=O)N[C@H]1CCNC(=O)[C@H]([C@@H](C)O)NC(=O)[C@H](CCN)NC(=O)[C@H](CCN)NC(=O)[C@H](CC(C)C)NC(=O)[C@@H](CC(C)C)NC(=O)[C@H](CCN)NC1=O)[C@@H](C)O [colistin], the OD600 is inactive: 1.08.
With `Oc1ncnc2[nH]ncc12` [Allopurinol] + CCC(C)CCCC(=O)N[C@@H](CCN)C(=O)N[C@H](C(=O)N[C@@H](CCN)C(=O)N[C@H]1CCNC(=O)[C@H]([C@@H](C)O)NC(=O)[C@H](CCN)NC(=O)[C@H](CCN)NC(=O)[C@H](CC(C)C)NC(=O)[C@@H](CC(C)C)NC(=O)[C@H](CCN)NC1=O)[C@@H](C)O [colistin] the figure was inactive: 0.895.
The figure for `O=C(O)CCCC[C@@H]1SC[C@@H]2NC(=O)N[C@@H]21` [Biotin] + CCC(C)CCCC(=O)N[C@@H](CCN)C(=O)N[C@H](C(=O)N[C@@H](CCN)C(=O)N[C@H]1CCNC(=O)[C@H]([C@@H](C)O)NC(=O)[C@H](CCN)NC(=O)[C@H](CCN)NC(=O)[C@H](CC(C)C)NC(=O)[C@@H](CC(C)C)NC(=O)[C@H](CCN)NC1=O)[C@@H](C)O [colistin] is inactive: 0.585; for `O=C(c1cc(Cc2n[nH]c(=O)c3ccccc23)ccc1F)N1CCN(C(=O)C2CC2)CC1` [Olaparib] + CCC(C)CCCC(=O)N[C@@H](CCN)C(=O)N[C@H](C(=O)N[C@@H](CCN)C(=O)N[C@H]1CCNC(=O)[C@H]([C@@H](C)O)NC(=O)[C@H](CCN)NC(=O)[C@H](CCN)NC(=O)[C@H](CC(C)C)NC(=O)[C@@H](CC(C)C)NC(=O)[C@H](CCN)NC1=O)[C@@H](C)O [colistin] it is inactive: 1.17; for `CC1=C(/C=C/C(C)=C/C=C/C(C)=C\C(=O)O)C(C)(C)CCC1` [Isotretinoin] + CCC(C)CCCC(=O)N[C@@H](CCN)C(=O)N[C@H](C(=O)N[C@@H](CCN)C(=O)N[C@H]1CCNC(=O)[C@H]([C@@H](C)O)NC(=O)[C@H](CCN)NC(=O)[C@H](CCN)NC(=O)[C@H](CC(C)C)NC(=O)[C@@H](CC(C)C)NC(=O)[C@H](CCN)NC1=O)[C@@H](C)O [colistin] it is inactive: 1.07.
With `COc1cc2nccc(Oc3ccc(NC(=O)Nc4cc(C)on4)c(Cl)c3)c2cc1OC` [Tivozanib] + CCC(C)CCCC(=O)N[C@@H](CCN)C(=O)N[C@H](C(=O)N[C@@H](CCN)C(=O)N[C@H]1CCNC(=O)[C@H]([C@@H](C)O)NC(=O)[C@H](CCN)NC(=O)[C@H](CCN)NC(=O)[C@H](CC(C)C)NC(=O)[C@@H](CC(C)C)NC(=O)[C@H](CCN)NC1=O)[C@@H](C)O [colistin] the figure was inactive: 1.03.
Regarding `C[C@H](CCC(=O)O)[C@H]1CC[C@H]2[C@@H]3[C@@H](O)C[C@@H]4C[C@H](O)CC[C@]4(C)[C@H]3CC[C@]12C` [Ursodeoxycholic acid] + CCC(C)CCCC(=O)N[C@@H](CCN)C(=O)N[C@H](C(=O)N[C@@H](CCN)C(=O)N[C@H]1CCNC(=O)[C@H]([C@@H](C)O)NC(=O)[C@H](CCN)NC(=O)[C@H](CCN)NC(=O)[C@H](CC(C)C)NC(=O)[C@@H](CC(C)C)NC(=O)[C@H](CCN)NC1=O)[C@@H](C)O [colistin], the OD600 was inactive: 0.645.
